Some of the results follow.
Tests used:
Test in all cases: log2 fold change, soluble protein after heating vs DMSO (PISA); higher = thermal stabilisation; K562 cells, 10 uM, 30 min; active = over 0.2 and 3.5 SD of the protein, either way, in both replicates (recomputed)
[1] = compound: NC(=O)Nc1cc(-c2cccc(F)c2)sc1C(=O)N[C@H]1CCCNC1
Outline: (§1)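 K562 cells (2×10^6 cells/mL) were treated with 10 μM compound for 30 min, and aliquots were heated for 3 min over 48°C-58°C. Pooled aliquots were extracted in PBS with 0.5% NP-40 at 4°C, and the supernatant after 21,000xg for 90 min was measured by TMTpro 16plex LC-MS/MS with channel sums equalised. Reported thermal stability, relative to control samples and from duplicates, is a log2 fold change.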

Sequences of proteins named here, by UniProt entry; tags and fusion partners are left off. A change or cut given only in a name is not applied to a line headed by its entry.
UniProt Q8IUX1: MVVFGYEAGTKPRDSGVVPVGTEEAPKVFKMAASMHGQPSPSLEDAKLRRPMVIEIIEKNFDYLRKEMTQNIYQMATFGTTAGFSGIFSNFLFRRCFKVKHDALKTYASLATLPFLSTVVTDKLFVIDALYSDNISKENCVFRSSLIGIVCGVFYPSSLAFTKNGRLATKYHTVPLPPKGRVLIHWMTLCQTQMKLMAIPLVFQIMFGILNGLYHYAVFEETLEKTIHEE
UniProt Q15363: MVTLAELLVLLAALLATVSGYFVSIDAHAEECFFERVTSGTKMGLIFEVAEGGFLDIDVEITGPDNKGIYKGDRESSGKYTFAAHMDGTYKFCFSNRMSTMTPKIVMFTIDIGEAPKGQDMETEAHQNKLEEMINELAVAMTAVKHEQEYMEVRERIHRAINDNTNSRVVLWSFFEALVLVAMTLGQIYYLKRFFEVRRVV
UniProt P82094: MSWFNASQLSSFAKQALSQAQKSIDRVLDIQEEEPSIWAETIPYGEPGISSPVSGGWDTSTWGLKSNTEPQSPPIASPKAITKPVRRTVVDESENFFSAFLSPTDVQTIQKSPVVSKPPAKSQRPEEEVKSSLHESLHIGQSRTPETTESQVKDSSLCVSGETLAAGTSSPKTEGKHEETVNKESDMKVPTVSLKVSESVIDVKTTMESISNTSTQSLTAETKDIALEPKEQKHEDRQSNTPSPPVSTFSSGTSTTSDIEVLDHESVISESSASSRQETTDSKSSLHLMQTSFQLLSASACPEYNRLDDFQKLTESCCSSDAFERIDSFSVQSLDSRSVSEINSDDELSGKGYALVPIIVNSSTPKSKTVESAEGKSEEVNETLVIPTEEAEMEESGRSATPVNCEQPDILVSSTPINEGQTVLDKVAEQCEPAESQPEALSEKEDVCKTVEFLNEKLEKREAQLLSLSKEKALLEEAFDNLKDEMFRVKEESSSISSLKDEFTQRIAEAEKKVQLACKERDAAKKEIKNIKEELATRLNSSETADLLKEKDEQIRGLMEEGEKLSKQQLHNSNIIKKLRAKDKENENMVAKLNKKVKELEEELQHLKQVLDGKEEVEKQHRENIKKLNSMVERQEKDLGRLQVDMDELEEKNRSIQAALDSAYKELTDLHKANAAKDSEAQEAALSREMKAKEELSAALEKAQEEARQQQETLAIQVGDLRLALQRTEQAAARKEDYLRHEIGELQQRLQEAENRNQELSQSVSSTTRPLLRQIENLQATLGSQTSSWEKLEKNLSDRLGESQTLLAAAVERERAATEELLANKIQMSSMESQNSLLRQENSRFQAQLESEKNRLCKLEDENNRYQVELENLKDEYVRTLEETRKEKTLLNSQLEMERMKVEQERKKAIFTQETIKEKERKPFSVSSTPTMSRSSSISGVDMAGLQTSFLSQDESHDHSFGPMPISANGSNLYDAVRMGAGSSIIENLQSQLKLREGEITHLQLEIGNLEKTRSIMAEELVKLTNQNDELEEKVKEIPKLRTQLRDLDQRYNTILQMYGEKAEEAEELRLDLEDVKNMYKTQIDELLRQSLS
UniProt Q9NVH6: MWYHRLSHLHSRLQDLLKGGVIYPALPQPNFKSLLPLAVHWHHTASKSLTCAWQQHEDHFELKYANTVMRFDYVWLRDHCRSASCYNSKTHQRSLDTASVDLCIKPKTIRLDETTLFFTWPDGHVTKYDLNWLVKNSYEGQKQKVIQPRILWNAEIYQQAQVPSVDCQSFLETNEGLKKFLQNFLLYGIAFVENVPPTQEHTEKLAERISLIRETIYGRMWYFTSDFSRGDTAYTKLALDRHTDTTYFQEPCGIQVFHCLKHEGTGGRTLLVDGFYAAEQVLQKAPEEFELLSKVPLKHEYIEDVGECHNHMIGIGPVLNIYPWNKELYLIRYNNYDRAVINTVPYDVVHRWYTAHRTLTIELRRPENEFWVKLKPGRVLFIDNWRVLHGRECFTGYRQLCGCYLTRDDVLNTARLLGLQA
UniProt P42166: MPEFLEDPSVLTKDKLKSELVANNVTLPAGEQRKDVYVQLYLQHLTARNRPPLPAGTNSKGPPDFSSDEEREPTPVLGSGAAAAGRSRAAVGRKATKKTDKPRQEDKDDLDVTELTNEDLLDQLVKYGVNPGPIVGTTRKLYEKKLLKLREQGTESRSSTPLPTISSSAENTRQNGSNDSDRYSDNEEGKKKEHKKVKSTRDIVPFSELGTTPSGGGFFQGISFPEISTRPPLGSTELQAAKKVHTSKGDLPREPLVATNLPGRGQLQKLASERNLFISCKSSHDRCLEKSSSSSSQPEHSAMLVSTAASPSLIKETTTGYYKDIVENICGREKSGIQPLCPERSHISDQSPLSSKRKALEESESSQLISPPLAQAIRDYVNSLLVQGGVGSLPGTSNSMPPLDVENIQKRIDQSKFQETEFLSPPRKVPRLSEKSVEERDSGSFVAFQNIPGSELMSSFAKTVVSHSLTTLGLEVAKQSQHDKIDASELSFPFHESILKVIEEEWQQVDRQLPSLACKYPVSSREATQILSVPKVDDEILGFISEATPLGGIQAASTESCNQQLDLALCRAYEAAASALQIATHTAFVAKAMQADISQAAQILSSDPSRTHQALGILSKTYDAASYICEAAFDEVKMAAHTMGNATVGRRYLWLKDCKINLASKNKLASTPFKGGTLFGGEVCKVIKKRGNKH
UniProt Q12893: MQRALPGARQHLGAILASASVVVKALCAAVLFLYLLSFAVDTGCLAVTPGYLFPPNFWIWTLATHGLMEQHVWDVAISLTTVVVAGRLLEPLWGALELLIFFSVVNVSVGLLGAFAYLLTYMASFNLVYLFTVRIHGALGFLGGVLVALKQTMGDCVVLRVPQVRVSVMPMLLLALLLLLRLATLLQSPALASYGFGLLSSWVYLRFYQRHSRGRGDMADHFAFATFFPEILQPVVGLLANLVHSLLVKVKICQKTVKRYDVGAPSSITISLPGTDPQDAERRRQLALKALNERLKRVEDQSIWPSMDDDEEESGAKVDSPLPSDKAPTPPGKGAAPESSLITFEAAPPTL
UniProt Q53S58: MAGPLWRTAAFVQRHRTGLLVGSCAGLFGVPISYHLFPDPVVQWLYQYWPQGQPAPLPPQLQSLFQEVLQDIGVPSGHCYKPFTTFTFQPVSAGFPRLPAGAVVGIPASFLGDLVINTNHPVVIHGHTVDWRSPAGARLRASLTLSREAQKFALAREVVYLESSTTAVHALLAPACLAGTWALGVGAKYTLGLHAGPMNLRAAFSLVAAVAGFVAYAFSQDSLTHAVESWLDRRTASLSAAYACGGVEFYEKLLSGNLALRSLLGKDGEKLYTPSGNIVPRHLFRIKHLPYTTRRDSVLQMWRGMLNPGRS
UniProt Q13445: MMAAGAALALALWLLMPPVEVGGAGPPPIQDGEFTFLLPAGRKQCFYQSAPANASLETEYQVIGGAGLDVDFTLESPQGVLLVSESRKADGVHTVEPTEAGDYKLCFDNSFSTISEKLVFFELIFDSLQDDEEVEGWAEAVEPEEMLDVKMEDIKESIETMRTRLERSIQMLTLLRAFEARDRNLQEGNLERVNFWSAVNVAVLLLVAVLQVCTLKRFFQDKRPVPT
UniProt Q9NQ34: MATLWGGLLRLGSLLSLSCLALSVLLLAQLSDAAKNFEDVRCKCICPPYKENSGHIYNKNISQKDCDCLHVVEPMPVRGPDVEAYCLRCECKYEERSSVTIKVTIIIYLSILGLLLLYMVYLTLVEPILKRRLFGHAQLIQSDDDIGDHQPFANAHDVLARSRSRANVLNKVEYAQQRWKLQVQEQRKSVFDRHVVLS
UniProt Q9UM00: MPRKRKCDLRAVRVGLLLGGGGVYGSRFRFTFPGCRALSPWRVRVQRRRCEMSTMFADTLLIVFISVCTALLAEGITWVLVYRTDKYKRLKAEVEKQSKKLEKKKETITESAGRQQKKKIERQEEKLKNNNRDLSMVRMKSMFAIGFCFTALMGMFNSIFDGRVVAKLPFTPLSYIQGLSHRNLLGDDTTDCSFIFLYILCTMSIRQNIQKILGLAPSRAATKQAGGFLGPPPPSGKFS
UniProt P42167: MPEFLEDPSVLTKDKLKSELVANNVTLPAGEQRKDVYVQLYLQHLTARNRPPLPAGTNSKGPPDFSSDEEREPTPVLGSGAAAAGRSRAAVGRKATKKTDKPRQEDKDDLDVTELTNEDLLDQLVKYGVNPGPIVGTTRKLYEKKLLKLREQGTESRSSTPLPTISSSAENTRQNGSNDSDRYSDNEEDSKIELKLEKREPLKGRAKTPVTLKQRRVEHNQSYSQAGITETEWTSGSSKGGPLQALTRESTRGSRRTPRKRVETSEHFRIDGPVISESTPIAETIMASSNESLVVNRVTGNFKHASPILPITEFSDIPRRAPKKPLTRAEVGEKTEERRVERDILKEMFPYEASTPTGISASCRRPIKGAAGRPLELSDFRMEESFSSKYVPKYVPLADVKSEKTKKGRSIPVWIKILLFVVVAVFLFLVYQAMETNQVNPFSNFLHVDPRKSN
UniProt Q96K49: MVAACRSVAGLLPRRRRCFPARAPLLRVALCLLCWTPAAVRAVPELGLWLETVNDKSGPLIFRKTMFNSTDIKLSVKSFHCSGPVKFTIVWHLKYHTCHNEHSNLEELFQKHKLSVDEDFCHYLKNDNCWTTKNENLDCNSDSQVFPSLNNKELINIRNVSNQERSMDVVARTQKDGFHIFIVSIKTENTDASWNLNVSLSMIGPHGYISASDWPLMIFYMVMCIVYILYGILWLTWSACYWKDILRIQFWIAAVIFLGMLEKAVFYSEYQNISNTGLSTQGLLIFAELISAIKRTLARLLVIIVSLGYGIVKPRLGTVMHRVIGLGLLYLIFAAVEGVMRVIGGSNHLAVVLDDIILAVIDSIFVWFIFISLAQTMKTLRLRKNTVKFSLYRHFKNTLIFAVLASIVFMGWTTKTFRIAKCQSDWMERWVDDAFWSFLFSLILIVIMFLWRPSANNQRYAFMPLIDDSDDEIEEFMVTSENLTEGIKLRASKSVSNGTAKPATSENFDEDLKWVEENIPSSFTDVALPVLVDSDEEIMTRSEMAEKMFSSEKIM
UniProt Q8NDZ6: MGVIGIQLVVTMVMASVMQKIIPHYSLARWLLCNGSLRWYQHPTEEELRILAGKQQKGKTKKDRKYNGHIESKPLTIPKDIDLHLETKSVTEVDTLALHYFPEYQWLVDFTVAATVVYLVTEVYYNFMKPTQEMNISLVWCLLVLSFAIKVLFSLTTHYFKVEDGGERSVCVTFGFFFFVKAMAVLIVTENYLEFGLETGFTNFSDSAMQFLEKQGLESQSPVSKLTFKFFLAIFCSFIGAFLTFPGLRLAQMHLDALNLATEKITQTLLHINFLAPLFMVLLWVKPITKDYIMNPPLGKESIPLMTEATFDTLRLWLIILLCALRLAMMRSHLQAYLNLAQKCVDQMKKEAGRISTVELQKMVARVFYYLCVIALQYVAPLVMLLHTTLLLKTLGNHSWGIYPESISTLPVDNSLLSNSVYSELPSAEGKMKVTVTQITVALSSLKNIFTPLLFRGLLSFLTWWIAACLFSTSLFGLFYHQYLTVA
UniProt Q86WV6: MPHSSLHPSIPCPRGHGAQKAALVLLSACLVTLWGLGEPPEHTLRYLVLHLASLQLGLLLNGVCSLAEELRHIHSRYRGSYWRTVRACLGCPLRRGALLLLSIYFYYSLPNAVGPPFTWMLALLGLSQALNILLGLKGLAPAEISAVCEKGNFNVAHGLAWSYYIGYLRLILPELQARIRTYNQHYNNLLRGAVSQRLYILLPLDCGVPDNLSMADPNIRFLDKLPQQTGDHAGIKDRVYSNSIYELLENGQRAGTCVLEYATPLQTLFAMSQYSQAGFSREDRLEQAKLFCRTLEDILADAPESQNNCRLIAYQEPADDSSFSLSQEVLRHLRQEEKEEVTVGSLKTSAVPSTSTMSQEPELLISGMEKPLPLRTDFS
UniProt Q9H3N1: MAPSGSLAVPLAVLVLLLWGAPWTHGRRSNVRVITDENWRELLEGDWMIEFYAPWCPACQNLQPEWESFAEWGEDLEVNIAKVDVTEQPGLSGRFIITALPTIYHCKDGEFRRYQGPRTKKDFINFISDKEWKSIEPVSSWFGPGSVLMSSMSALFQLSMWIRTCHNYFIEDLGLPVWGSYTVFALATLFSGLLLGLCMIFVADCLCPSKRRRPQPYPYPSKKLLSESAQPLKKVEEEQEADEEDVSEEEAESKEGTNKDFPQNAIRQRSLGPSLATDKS
UniProt Q86UB9: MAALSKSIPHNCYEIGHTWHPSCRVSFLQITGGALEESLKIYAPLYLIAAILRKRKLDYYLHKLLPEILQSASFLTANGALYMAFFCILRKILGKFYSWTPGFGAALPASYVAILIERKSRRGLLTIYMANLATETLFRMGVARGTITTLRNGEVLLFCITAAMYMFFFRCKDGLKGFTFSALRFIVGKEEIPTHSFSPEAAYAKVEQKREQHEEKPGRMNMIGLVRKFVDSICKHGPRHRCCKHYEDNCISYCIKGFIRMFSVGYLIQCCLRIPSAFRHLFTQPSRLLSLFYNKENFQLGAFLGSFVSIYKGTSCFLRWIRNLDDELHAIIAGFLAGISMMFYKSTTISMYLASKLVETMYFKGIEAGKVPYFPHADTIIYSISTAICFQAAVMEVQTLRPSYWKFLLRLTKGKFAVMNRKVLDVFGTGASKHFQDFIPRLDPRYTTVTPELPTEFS

[2] = compound: NC(=O)c1cnc(N[C@@H]2CCCC[C@@H]2N)nc1Nc1cccc(-n2nccn2)c1
Outline: as §1

[3] = compound: NC1(c2ccc(-c3nc4ccn5c(=O)[nH]nc5c4cc3-c3ccccc3)cc2)CCC1
Outline: as §1

[4] = compound: NCC(=O)Nc1ccc(-n2nc(C(F)(F)F)cc2-c2ccc3c(ccc4ccccc43)c2)cc1
Outline: as §1

entinostat = compound: Nc1ccccc1NC(=O)c1ccc(CNC(=O)OCc2cccnc2)cc1 [entinostat]
Outline: as §1

vorinostat = compound: O=C(CCCCCCC(=O)Nc1ccccc1)NO [vorinostat]
Outline: as §1

citarinostat = compound: O=C(CCCCCCNC(=O)c1cnc(N(c2ccccc2)c2ccccc2Cl)nc1)NO [citarinostat]
Outline: as §1

silmitasertib = compound: O=C(O)c1ccc2c(c1)nc(Nc1cccc(Cl)c1)c1ccncc12 [silmitasertib]
Outline: as §1

[5] = compound: O=C1NC(=O)C(c2cnc3ccccn23)=C1c1cn2c3c(cc(F)cc13)CN(C(=O)N1CCCCC1)CC2
Outline: as §1

[6] = compound: c1cc(OCCN2CCCCC2)cc(-c2n[nH]c3ccc(-c4nnc[nH]4)cc23)c1
Outline: as §1

Measured: log2 fold change

TMEM126B (UniProt Q8IUX1)
inactive: [1] 0.022 | [2] 0.005 | [3] -0.007 | [4] 0.055 | entinostat 0.023 | vorinostat 0.058 | citarinostat -0.131 | silmitasertib 0 | [5] 0 | [6] 0.029

TMEM189-UBE2V1 (UniProt I3L0A0)
inactive: [1] 0.06 | [2] -0.018 | [3] -0.063 | [4] -0.018 | entinostat -0.097 | vorinostat 0.005 | citarinostat 0.046 | silmitasertib -0.058 | [5] 0.009 | [6] -0.016

TM2D3 (UniProt Q9BRN9)
inactive: [1] -0.064 | [2] -0.227 | [3] -0.151 | [4] -0.079 | entinostat 0.062 | vorinostat -0.077 | citarinostat -0.042 | silmitasertib 0.104 | [5] 0 | [6] -0.223

TMED2 (UniProt Q15363)
inactive: [1] 0.007 | [2] 0.008 | [3] -0.067 | [4] -0.014 | entinostat -0.009 | vorinostat -0.008 | citarinostat 0.054 | silmitasertib 0.013 | [5] 0.003 | [6] -0.004

TLK2 isoform 2 (UniProt Q86UE8)
inactive: [1] -0.059 | [2] 0.049 | [3] -0.042 | [4] -0.037 | entinostat 0.036 | vorinostat 0.1 | citarinostat 0.016 | silmitasertib 0.034 | [5] -0.026 | [6] -0.052

TMF1 (UniProt P82094)
inactive: [1] 0.018 | [2] -0.009 | [3] -0.022 | [4] -0.016 | entinostat -0.002 | vorinostat -0.013 | citarinostat 0.034 | silmitasertib 0.058 | [5] -0.026 | [6] -0.025

TLN1 (UniProt Q9Y490)
inactive: [1] 0.026 | [2] -0.057 | [3] -0.119 | [4] -0.054 | entinostat 0.052 | vorinostat 0.025 | citarinostat 0.059 | silmitasertib 0.015 | [5] -0.03 | [6] 0.017

TMOD3 (UniProt Q9NYL9)
inactive: [1] -0.031 | [2] 0.041 | [3] -0.037 | [4] 0 | entinostat 0.017 | vorinostat 0.057 | citarinostat 0.016 | silmitasertib 0.079 | [5] 0.007 | [6] -0.027

TMLHE isoform 8 (UniProt Q9NVH6)
inactive: [1] 0.091 | [2] -0.044 | [3] -0.103 | [4] -0.086 | entinostat -0.042 | vorinostat 0.005 | citarinostat 0.043 | silmitasertib -0.051 | [5] 0.003 | [6] -0.03

TM9SF4 (UniProt Q92544)
inactive: [1] 0.024 | [2] 0.064 | [3] -0.061 | [4] 0.032 | entinostat -0.01 | vorinostat 0.146 | citarinostat 0.044 | silmitasertib 0.03 | [5] -0.011 | [6] -0.057

TMEM165 (UniProt Q9HC07)
inactive: [1] -0.007 | [2] 0.054 | [3] 0.055 | [4] -0.121 | entinostat -0.008 | vorinostat -0.044 | citarinostat 0.019 | silmitasertib -0.04 | [5] -0.014 | [6] 0.034

TM9SF3 (UniProt Q9HD45)
inactive: [1] 0.002 | [2] 0.012 | [3] -0.006 | [4] -0.066 | entinostat -0.013 | vorinostat -0.038 | citarinostat -0.019 | silmitasertib -0.076 | [5] 0.011 | [6] -0.015

TMPO (UniProt P42166)
inactive: [1] -0.043 | [2] -0.088 | [3] -0.139 | [4] -0.054 | entinostat 0.075 | vorinostat 0.123 | citarinostat 0.072 | silmitasertib 0.078 | [5] -0.128 | [6] 0.001

TMEM168 (UniProt Q9H0V1)
inactive: [1] 0.005 | [2] 0.02 | [3] -0.031 | [4] 0.065 | entinostat 0.056 | vorinostat 0.037 | citarinostat 0.079 | silmitasertib 0.008 | [5] 0.253 | [6] -0.124

TMEM115 (UniProt Q12893)
inactive: [1] -0.009 | [2] -0.027 | [3] 0.017 | [4] 0.027 | entinostat 0.053 | vorinostat 0.05 | citarinostat 0.005 | silmitasertib 0.071 | [5] -0.156 | [6] -0.042

TMEM177 (UniProt Q53S58)
active: [4] 0.347
inactive: [1] -0.014 | [2] -0.008 | [3] -0.043 | entinostat -0.021 | vorinostat -0.048 | citarinostat 0.068 | silmitasertib -0.019 | [5] 0.048 | [6] -0.042

TMED1 (UniProt Q13445)
inactive: [1] 0.021 | [2] 0.113 | [3] -0.053 | [4] 0.022 | entinostat 0.041 | vorinostat -0.041 | citarinostat 0.054 | silmitasertib -0.001 | [5] -0.009 | [6] 0.068

TMEM9B (UniProt Q9NQ34)
inactive: [1] -0.025 | [2] 0.004 | [3] -0.093 | [4] -0.111 | entinostat 0.025 | vorinostat 0.051 | citarinostat 0.023 | silmitasertib 0.038 | [5] 0.043 | [6] -0.121

TMCO1 (UniProt Q9UM00)
inactive: [1] -0.047 | [2] -0.065 | [3] 0.074 | [4] 0.032 | entinostat 0.035 | vorinostat -0.045 | citarinostat -0.003 | silmitasertib -0.092 | [5] -0.069 | [6] 0.061

TMA16 (UniProt Q96EY4)
inactive: [1] 0.101 | [2] 0.101 | [3] 0.214 | [4] 0.091 | entinostat -0.134 | vorinostat -0.031 | citarinostat -0.066 | silmitasertib 0.163 | [5] 0.149 | [6] -0.278

TM9SF1 (UniProt O15321)
inactive: [1] 0.026 | [2] 0.012 | [3] -0.086 | [4] 0.133 | entinostat -0.085 | vorinostat -0.061 | citarinostat -0.071 | silmitasertib -0.021 | [5] -0.128 | [6] -0.021

TMPO isoform 2 (UniProt P42167)
inactive: [1] 0.049 | [2] 0.008 | [3] 0.058 | [4] -0.078 | entinostat -0.247 | vorinostat 0.22 | citarinostat 0.035 | silmitasertib -0.005 | [5] -0.084 | [6] -0.016

TMEM263 (UniProt Q8WUH6)
inactive: [1] -0.044 | [2] -0.335 | [3] -0.389 | [4] -0.299 | entinostat 0.123 | vorinostat 0.058 | citarinostat 0.068 | silmitasertib 0.057 | [5] -0.08 | [6] -0.037

TMEM87B (UniProt Q96K49)
inactive: [1] -0.098 | [2] -0.062 | [3] -0.266 | [4] -0.1 | entinostat 0.135 | vorinostat 0.057 | citarinostat 0.021 | silmitasertib 0.096 | [5] -0.032 | [6] -0.117

TMEM245 (UniProt Q9H330)
inactive: [1] -0.016 | [2] 0.02 | [3] -0.039 | [4] 0.003 | entinostat 0.013 | vorinostat -0.085 | citarinostat 0.029 | silmitasertib 0.001 | [5] 0.023 | [6] 0.014

TMEM161B (UniProt Q8NDZ6)
inactive: [1] -0.056 | [2] 0.029 | [3] -0.017 | [4] -0.073 | entinostat 0.041 | vorinostat 0.097 | citarinostat 0.036 | silmitasertib -0.011 | [5] 0.003 | [6] -0.03

Retrieved one by one from the entries so far (2):
TMEM245 (UniProt Q9H330)
inactive: [1] -0.016 | [2] 0.02 | [3] -0.039 | [4] 0.003 | entinostat 0.013 | vorinostat -0.085 | citarinostat 0.029 | silmitasertib 0.001 | [5] 0.023 | [6] 0.014

TLK2 isoform 2 (UniProt Q86UE8)
inactive: [1] -0.059 | [2] 0.049 | [3] -0.042 | [4] -0.037 | entinostat 0.036 | vorinostat 0.1 | citarinostat 0.016 | silmitasertib 0.034 | [5] -0.026 | [6] -0.052

(continued)

TMEM230 isoform 2 (UniProt Q96A57)
inactive: [1] 0.003 | [2] 0.024 | [3] 0.007 | [4] 0.123 | entinostat -0.024 | vorinostat -0.008 | citarinostat -0.014 | silmitasertib 0.024 | [5] -0.045 | [6] -0.043

TMEM173 (UniProt Q86WV6)
inactive: [1] 0.002 | [2] -0.041 | [3] -0.078 | [4] -0.06 | entinostat 0.032 | vorinostat -0.09 | citarinostat -0.028 | silmitasertib -0.041 | [5] 0.035 | [6] 0.006

TMX1 (UniProt Q9H3N1)
inactive: [1] -0.006 | [2] -0.008 | [3] -0.036 | [4] -0.026 | entinostat -0.024 | vorinostat 0.015 | citarinostat -0.048 | silmitasertib -0.006 | [5] -0.074 | [6] -0.029

TMEM135 (UniProt Q86UB9)
inactive: [1] -0.029 | [2] -0.06 | [3] -0.051 | [4] 0.044 | entinostat -0.025 | vorinostat -0.073 | citarinostat -0.02 | silmitasertib 0.02 | [5] -0.025 | [6] -0.122
